The values below come from ChEMBL document CHEMBL4033791, “Creation of a Novel Class of Potent and Selective MutT Homologue 1 (MTH1) Inhibitors Using Fragment-Based Screening and Structure-Based Drug Design” (J Med Chem, 2018).

This data set in a line: Solubility of the compound in buffer.

The structures appear in SMILES notation. Values after ≈ are worked out from the molar mass of the structure shown.

Turning to `O=C(NC1COC1)c1cc2c(N3CCCC3c3cccnc3)ccnc2[nH]1` (stereo unspecified), the solubility worked out at 250 µM (≈ 90.9 µg/mL).
